These are yes or no findings as the source states them, for the method shown. Each block holds one molecule with its values, some of them ahead of it.
Columns and labels:
OsPK1 (rice (japonica)) = target: T1, OsPK1 (rice (japonica)) (UniProt Q2RAK2); test: two-hybrid; yeast two-hybrid; pGADT7 prey vector and pGBKT7 bait vector; one-tenth dilution series spotted on SD/-Leu/-Trp and on selective SD/-Leu/-Trp/-Ade/-His
T1 sequence: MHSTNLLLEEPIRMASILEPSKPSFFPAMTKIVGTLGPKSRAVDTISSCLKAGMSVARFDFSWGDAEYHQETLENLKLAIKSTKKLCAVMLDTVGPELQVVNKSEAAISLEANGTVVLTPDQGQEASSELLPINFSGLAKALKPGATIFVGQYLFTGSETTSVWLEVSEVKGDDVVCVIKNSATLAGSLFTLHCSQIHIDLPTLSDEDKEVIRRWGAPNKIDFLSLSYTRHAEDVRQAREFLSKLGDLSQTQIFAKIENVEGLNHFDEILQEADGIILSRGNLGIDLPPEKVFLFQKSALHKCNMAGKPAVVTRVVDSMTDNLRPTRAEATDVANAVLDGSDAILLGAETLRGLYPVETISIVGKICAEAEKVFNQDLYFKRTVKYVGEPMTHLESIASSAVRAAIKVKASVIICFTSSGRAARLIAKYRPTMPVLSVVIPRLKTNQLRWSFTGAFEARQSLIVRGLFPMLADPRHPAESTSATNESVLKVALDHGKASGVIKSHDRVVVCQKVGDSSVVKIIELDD

OsPK10 (rice (japonica)) = test: as above

binding (OsPK1 (rice (japonica))): no binding
Molecule: OsPK4 (rice (japonica)) (enzyme)

binding (OsPK10 (rice (japonica))): no binding
B1: OsPK1 (enzyme, UniProt Q2RAK2 1-527)
chain: T1 sequence
